For one molecule, binding results are on record in article PMC11226457.

No constants are given. Whether binding was seen depends on the method and setting. Binding seen in cells or lysates may run through a third protein. Some results given as binding are weak or reduced against the parent protein; the word gives no strength. Where a sequence is shown, tags or fusion partners need not be part of it.

This assay has as its target T1, vinculin T12 eGFP (UniProt P12003).
T1 sequence: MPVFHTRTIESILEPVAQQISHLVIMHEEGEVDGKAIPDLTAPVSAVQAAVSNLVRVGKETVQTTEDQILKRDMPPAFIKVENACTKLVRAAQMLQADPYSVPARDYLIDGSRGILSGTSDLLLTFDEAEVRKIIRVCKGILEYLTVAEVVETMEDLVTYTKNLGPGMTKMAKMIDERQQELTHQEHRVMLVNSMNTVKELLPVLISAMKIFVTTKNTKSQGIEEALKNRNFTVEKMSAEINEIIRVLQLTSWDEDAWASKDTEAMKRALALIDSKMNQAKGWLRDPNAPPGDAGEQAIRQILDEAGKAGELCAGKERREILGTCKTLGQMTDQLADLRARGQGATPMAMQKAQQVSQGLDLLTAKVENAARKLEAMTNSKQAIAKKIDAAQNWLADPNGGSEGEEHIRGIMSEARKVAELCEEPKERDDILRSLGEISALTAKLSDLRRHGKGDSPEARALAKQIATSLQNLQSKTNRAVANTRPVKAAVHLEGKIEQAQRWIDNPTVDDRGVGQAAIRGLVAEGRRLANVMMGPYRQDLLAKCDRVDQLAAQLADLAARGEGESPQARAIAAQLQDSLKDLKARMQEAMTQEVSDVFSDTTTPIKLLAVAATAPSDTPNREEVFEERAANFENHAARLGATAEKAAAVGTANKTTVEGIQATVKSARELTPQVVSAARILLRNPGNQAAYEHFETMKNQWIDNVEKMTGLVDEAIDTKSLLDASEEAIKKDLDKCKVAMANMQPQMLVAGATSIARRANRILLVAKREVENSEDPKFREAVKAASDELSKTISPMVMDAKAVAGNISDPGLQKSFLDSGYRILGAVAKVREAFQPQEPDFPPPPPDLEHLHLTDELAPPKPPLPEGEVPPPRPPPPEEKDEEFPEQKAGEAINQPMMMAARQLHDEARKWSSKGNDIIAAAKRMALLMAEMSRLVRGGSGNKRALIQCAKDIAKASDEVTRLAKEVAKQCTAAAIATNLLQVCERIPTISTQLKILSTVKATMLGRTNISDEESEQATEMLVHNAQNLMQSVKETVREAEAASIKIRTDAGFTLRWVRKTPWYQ
Put plainly: co-IP; GFP-vinculin constructs transfected in MDCK α-catenin KD (about 90% α-catenin depletion); GFP-Trap_A immunoprecipitation from lysate (50 mM Tris-HCl pH 7.6, 150 mM NaCl, 1% NP-40, 0.5% deoxycholate); blot for endogenous β-catenin.

B1: β-catenin (protein, UniProt B6V8E6 1-781)
chain: MATQADLMELDMAMEPDRKAAVSHWQQQSYLDSGIHSGATTTAPSLSGKGNPEEEDVDTTQVLYEWEQGFSQSFTQEQVADIDGQYAMTRAQRVRAAMFPETLDEGMQIPSTQFDAAHPTNVQRLAEPSQMLKHAVVNLINYQDDAELATRAIPELTKLLNDEDQVVVNKAAVMVHQLSKKEASRHAIMRSPQMVSAIVRTMQNTNDVETARCTAGTLHNLSHHREGLLAIFKSGGIPALVKMLGSPVDSVLFYAITTLHNLLLHQEGAKMAVRLAGGLQKMVALLNKTNVKFLAITTDCLQILAYGNQESKLIILASGGPQALVNIMRTYTYEKLLWTTSRVLKVLSVCSSNKPAIVEAGGMQALGLHLTDPSQRLVQNCLWTLRNLSDAATKQEGMEGLLGTLVQLLGSDDINVVTCAAGILSNLTCNNYKNKMMVCQVGGIEALVRTVLRAGDREDITEPAICALRHLTSRHQEAEMAQNAVRLHYGLPVVVKLLHPPSHWPLIKATVGLIRNLALCPANHAPLREQGAIPRLVQLLVRAHQDTQRRTSMGGTQQQFVEGVRMEEIVEGCTGALHILARDVHNRIVIRGLNTIPLFVQLLYSPIENIQRVAAGVLCELAQDKEAAEAIEAEGATAPLTELLHSRNEGVATYAAAVLFRMSEDKPQDYKKRLSVELTSSLFRTEPMAWNETADLGLDIGAQGEPLGYRQDDPSYRSFHSGGYGQDALGMDPMMEHEMGGHHPGADYPVDGLPDLGHAQDLMDGLPPGDSNQLAWFDTDL
As to B1, the binding result is “binds”.
